Assay results reported in paper PMC10830484.

Biological target: T1, DENND6A-GFP (human) (UniProt Q8IWF6)
T1 sequence: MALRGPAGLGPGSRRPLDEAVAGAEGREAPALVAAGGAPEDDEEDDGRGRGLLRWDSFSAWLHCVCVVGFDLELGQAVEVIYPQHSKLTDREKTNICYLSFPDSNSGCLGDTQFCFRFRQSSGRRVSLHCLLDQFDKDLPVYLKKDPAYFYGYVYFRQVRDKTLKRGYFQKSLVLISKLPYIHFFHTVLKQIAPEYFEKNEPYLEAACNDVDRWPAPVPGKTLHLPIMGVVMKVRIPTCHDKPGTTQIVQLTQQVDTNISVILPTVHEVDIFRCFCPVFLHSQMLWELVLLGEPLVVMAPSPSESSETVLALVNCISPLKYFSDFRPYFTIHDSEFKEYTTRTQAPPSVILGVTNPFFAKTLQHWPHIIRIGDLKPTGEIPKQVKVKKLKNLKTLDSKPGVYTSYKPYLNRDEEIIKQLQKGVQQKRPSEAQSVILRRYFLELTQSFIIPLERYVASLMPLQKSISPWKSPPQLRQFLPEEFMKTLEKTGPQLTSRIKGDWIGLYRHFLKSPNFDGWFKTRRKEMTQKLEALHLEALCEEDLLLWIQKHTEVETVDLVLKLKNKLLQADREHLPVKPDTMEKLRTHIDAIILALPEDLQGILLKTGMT
Assay: co-IP; co-immunoprecipitation with DENND6A (Supplementary Fig. 8)

binding: binds
Substance: dynein intermediate chain (DIC) (human (endogenous in HEK-293T))

These are yes or no findings as the source states them, for the method shown. In cells and extracts the contact can be indirect. Binding can be weak; no strength is given. Sequences can lack the tags named with a protein.
